The filed quantity is “Percent Effect” (%).
How 0% and 100% were set is not recorded. Most values in the screen are low, and negative values occur.
The compounds are a random part of those screened.

Protein sequences, listed by entry. Tags and fused reporters are not part of them. Residues count along the entry.
UniProt P9WPC5, whole entry: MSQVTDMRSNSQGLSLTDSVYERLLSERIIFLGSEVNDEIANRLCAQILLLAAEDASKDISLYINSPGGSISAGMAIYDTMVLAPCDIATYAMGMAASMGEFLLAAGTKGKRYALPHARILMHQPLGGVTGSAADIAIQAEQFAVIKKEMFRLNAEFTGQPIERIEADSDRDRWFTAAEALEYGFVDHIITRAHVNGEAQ
UniProt P9WPC3, whole entry partner: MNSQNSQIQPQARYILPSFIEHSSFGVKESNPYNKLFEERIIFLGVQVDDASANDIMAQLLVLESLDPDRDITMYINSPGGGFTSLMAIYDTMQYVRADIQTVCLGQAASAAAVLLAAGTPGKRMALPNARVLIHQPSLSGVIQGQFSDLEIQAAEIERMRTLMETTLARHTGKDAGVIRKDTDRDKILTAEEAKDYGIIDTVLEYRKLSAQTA
UniProt A4I591, 1-473: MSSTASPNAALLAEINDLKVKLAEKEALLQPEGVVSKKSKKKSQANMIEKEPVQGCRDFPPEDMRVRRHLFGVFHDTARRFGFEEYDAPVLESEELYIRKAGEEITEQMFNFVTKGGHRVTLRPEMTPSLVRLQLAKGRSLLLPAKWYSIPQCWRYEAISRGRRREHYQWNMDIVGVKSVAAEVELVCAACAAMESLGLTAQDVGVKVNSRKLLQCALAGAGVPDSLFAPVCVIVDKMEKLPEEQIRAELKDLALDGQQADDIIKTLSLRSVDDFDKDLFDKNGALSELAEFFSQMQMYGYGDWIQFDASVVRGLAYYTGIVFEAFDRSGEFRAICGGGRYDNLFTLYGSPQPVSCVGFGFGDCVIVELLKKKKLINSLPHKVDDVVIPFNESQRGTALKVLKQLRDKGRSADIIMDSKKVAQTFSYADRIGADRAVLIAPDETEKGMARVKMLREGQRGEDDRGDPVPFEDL

ClpP1P2: 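ClpP1P2, Mycobacterium tuberculosis (UniProt P9WPC5 and UniProt P9WPC3). Protease assay of ClpP1P2, read by the AMC dye that it sets free. Compounds at 50 µM. Higher reads as stronger inhibition, judged from the few compounds that gave an IC50. Most other retested compounds had strongly negative values. About 69,000 compounds were tested under these conditions; 0.015% (about 10) showed 50% or more at least once.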
LiHisRS: 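Enzyme assay of histidyl-tRNA synthetase; the read-out is not stated. Target: Histidine-tRNA ligase, Leishmania infantum (UniProt A4I591). Tested at 30 µM. The record gives no direction; compounds that gave an IC50 in retests scored well above the rest, so higher reads as stronger inhibition. The assay is labelled LdHisRS but filed under L. infantum. About 69,000 compounds were tested under these conditions; 0.6% (about 410) showed 50% or more at least once.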

| Compound | ClpP1P2 | LiHisRS |
|---|---|---|
| `CC(C)c1nc(C2CCCN2Cc2ccncc2Cl)no1` (centres unmarked) | 8.354% | 12.17% |
| `O=C1CC[C@H]2[C@H](CCN2S(=O)(=O)C2CC2)N1CCN1CCCC1` | 11.8% | 0.9009% |
| `CN(CCc1ccccc1)Cc1cc(C(=O)N2CCN(C)C(=O)C2)no1` | 2.109% | 17.14% |
| `COc1ccc(CC(=O)N2CCCC(c3nncn3C)C2)cc1` (centres unmarked) | -1.577% | 11.57% |
| `CN(C)CC(=O)NC1CC(C)(C)Cc2nc(C(C)(C)C)ncc21` (centres unmarked) | -12.49% | 13.25% |
| `CC1CCCN1Cc1cccc(C(=O)Nc2ccc3c(c2)CCC3=O)c1` (centres unmarked) | 4.085% | 7.692% |
| `Cc1ccccc1C1(C(=O)N2CCOC(C)C2)CCOCC1` (centres unmarked) | 2.945% | 12.12% |
| `COCCOc1ccc(NCc2cccc3cn[nH]c23)cn1` | -14.36% | 16.13% |
| `COc1cccn(Cc2nnc(-c3cccnc3)o2)c1=O` | -11.17% | 39.34% |
| `COCc1ncc(CN2CCC3(CCNCC3)CC2)cn1` | -8.07% | 30.67% |
| `CO[C@H]1C[C@@H](O)C12CCN(C(=O)CCSCc1ccc(F)cc1)CC2` | -36.62% | 9.167% |
| `COc1cc(CNCCC(N)=O)c2c(c1)CC(C)O2` (centres unmarked) | -6.299% | 15.07% |
| `COCCN1CCC12CCN(C(=O)c1ccc(C)nc1)C2` (centres unmarked) | 3.109% | 17.82% |
| `Cc1nn(C)c(Oc2ccc(Cl)cc2)c1CN1CC[C@H](CO)[C@@H](O)C1` | 0.1426% | 10.53% |
| `Cc1cc(C(=O)NCC(O)CN2CCCC2=O)ccc1F` (centres unmarked) | -1.826% | 7.937% |
| `Cc1nnc(N2C[C@@H](OCCCn3cccn3)[C@H]3OCCC[C@H]32)s1` | 2.809% | 22.86% |
| `CN(C)C(=O)C1CCC2(CCN(Cc3cnn(C)c3)CC2)C1` (centres unmarked) | -0.8909% | 10.53% |
| `COCCN1CCN(Cc2ccc3nsnc3c2)[C@H]2CS(=O)(=O)C[C@H]21` | -0.5467% | 16.67% |
| `O=c1ccc(-c2cccs2)nn1CN1CCN(Cc2ccccc2)CC1` | 4.402% | -7.767% |
| `CC(C)[C@@H]1CN(C(=O)CN(C)Cc2ccc(F)cc2)C[C@H]1C(=O)O` | -6.507% | 1.961% |
| `O=S1(=O)CCC(S(=O)(=O)c2cccc(S(=O)(=O)N3CCCCCC3)c2)C1` (centres unmarked) | -18% | 15.22% |
| `Cc1nsc(NCCNS(=O)(=O)c2cccc(Cl)c2)n1` | -5.945% | 15.87% |
| `Cc1cnc2[nH]c(C(F)(F)F)c(CN3CCOCC3)c2c1` | -7.256% | 2.837% |
| `COc1cc(C#N)ccc1OC12CCCN(CC1)C2` (centres unmarked) | 0.5918% | 23.08% |
| `O=C(N1CCOCC1)[C@@]12CCO[C@@H]1CCN(CC1CCCCC1)C2` | -0.8404% | -3.883% |
| `CC1(C)OCC2(CO1)CN(C(=O)c1ccccc1Cl)C2` | -7.999% | 10.43% |
| `O=C(c1ccc[nH]1)N1CCc2onc(COc3cccnc3)c2C1` | 0.2324% | 18% |
| `c1cc(CNCc2ccnc(N3CCOCC3)c2)c2c(c1)OCCO2` | -0.9699% | 26.42% |
| `CN(C(=O)c1ccco1)C1CCC(NC(=O)OC(C)(C)C)CC1` (centres unmarked) | -23.93% | 6.4% |
| `CC1c2cc(F)ccc2CCN1CCCS(=O)(=O)C(C)C` (centres unmarked) | -0.5659% | 5.759% |
| `CCC[C@H]1CN(S(=O)(=O)c2ccccc2)C[C@@H]1N` | 12.3% | 17.74% |
| `c1coc(CN2CCCn3c(CN4CCOCC4)nnc3C2)c1` | 10.56% | 13.21% |
| `CCc1ncc2c(n1)CN(Cc1nc(C)c(C)o1)CC2` | -16.63% | 21.15% |
| `Cc1nc(N(C)C)nc2c1COCC21CCN(C(=O)C2CC2)C1` (centres unmarked) | -6.865% | 6.849% |
| `COc1cc(NCC(c2ccccn2)N(C)C)ncn1` (centres unmarked) | -2.032% | 12.82% |
| `CC1=NN(c2ccc(C(=O)N3CCCC(n4ccnc4)C3)cc2)CC1` (centres unmarked) | 9.828% | 23.6% |
| `Cc1nc(C)n(CC2CCCN2CCCOc2ccc(F)cc2)n1` (centres unmarked) | -5.404% | 21.35% |
| `Cc1cnc(C)c(N2CCC3(CCCN(C4CCOCC4)C3=O)C2)n1` (centres unmarked) | 3.624% | 13.83% |
| `CN1CCN(CC2(O)CCCN(S(=O)(=O)c3cn[nH]c3)CC2)CC1` (centres unmarked) | -7.586% | 1.399% |
| `Cn1cc(S(=O)(=O)NCc2ccsc2)cn1` | -6.69% | 17.33% |
| `CNS(=O)(=O)c1ccsc1C(=O)OC` | -4.885% | 2.667% |
| `Nc1c(N2CCOCC2)ncnc1N1CCOCC1` | -9.899% | 5.941% |
| `CN1CC2(CCCN(Cc3ccccc3OCC(=O)O)C2)OC1=O` (centres unmarked) | 13.44% | 21.13% |
| `CC1CN(Cc2nccn2C)CCN1c1ccc2nncn2n1` (centres unmarked) | 4.536% | 21.92% |
| `CN1CCC(N2CCC(CN(Cc3ccncc3)C3CCC3)CC2)CC1` | -3.352% | 8.219% |
| `COCC1c2nnn(C)c2CCN1C(=O)COc1ccccc1C` (centres unmarked) | -3.624% | 17.12% |
| `Cc1nc2ccccn2c1CC(=O)N[C@@H]1CCC[C@@H](N2CCCC2)[C@@H]1O` | -0.9419% | 15.79% |
| `CCOCc1nc(-c2ccc(F)cc2Cl)n(C2CCN(C)CC2)n1` | -0.4336% | 2.797% |
| `COc1cccc(OCC(=O)NS(=O)(=O)c2ccc(Br)s2)c1` | 1.518% | -1.709% |
| `Cn1cc(CCCNC(=O)NC2CCN(CC(F)(F)F)C2=O)cn1` (centres unmarked) | -3.417% | 6.806% |
| `CCC(=O)N1CCC(c2nnc(Cn3cncn3)n2C2CC2)CC1` | -0.7209% | 14.42% |
| `CCc1ccc(CN2CC[C@H]3C[C@H](c4nnc(C)[nH]4)O[C@@H]3C2)o1` | 0.2583% | 13.33% |
| `COc1ccc(CCC2CCCN(C(=O)CCc3cc(O)no3)C2)cc1` (centres unmarked) | 1.848% | 20.55% |
| `NC(=O)NC(=O)CCn1ccc(-c2ccccc2)n1` | -2.296% | -0.8403% |
| `Cc1cc(C(=O)N[C@H]2CN(CCO)C[C@@H]2C2CC2)sc1C` | -4.884% | 4.301% |
| `CC(=O)N1CCOC2(CCCN(Cc3ccc(N(C)C)cc3)C2)C1` (centres unmarked) | -19.06% | 5.714% |
| `Cn1cc(CN2CCO[C@H]3CN(Cc4ccco4)C[C@H]32)cn1` | -14.28% | 6.579% |
| `O=C(O)c1coc(COc2cccc(F)c2)n1` | -5.944% | 16.98% |
| `CN(Cc1ccccc1)C(=O)CN1CCCC(Cn2cncn2)C1` (centres unmarked) | 3.425% | 23.08% |
| `CCCN(CC(=O)N(C)C)C(=O)c1ccc(-c2nc(C)cs2)cc1` | 7.464% | 27.06% |
| `O=C1O[C@@H]2CN(Cc3ccncc3)C[C@@H]2N1CCCN1CCOCC1` | 0.2905% | -6.667% |
| `CN(C)C(=O)CN1C(=O)C[C@@H]2[C@@H]1CCN2Cc1cccc(C#N)c1` | 11.12% | 10% |
| `O=C(C[S+]([O-])Cc1ccc(F)cc1Cl)N1CCc2sccc2C1` (centres unmarked) | 2.399% | 5.882% |
| `CCc1nc(C)c(C(=O)N(C)Cc2cnn(-c3cccc(OC)c3)c2)s1` | 10.16% | 11.43% |
| `Cc1nc(-c2ccc(F)cc2)cc(C2CCNCC2)n1` | -2.891% | 11.35% |
| `Cc1cc(NCCc2cnccn2)nc(-c2ccccc2O)n1` | -6.628% | 15.93% |
| `Cc1nc(N(C)C)nc(C)c1NC(=O)c1ccccc1F` | -8.23% | 9.756% |
| `CC1CCc2nn(CCNC(=O)C3CCCC3)c(=O)cc2C1` (centres unmarked) | -12.34% | 8.511% |

The values are deposited in ChEMBL (CHEMBL3988442, “University of Dundee, Small-Polar-MMV Screening Library” (2021)).